Here are results for 1 compound from patent publication US20240197655A1 (REPUBLIC OF KOREA(MASAN NATIONAL TUBERCULOSIS HOSPITAL), priority 2021, published 2024).

Structures can show the parent of a compound that is named as a salt.

In assay [1] the test system is M. abscessus (ATCC 19997). In words: Resazurin (REMA) broth microdilution dose-response, aerobic culture. The following applies: Mycobacteroides abscessus, ATCC19997, 7H9 broth, FIG. 1(A); read-out: IC50 against M. abscessus. The class given is cell-based, Mycobacterium abscessus.
For assay [2], the system named is M. abscessus (ATCC 19997) under anaerobic conditions. In words: Resazurin dose-response under anaerobic non-replicating culture. The class given is cell-based, Mycobacterium abscessus. Particulars: Mycobacteroides abscessus, FIG. 4. The method, then: In order to determine the antibiotic ability against M. abscessus (ATCC 19997) under anaerobic conditions, a bacterial culture (5×10^6 bacteria/mL) was inoculated into 5 mL of 7H9 broth (BD, 271310) supplemented with 10% OADC. The bacterial culture was placed in an anaerobic jar (BD BBLIM GasPAK™ Jar; Franklin Lakes, NJ, USA). Here, a BD BBLIM GasPAK™ anaerobic indicator (methylene blue for monitoring oxygen depletion) was used. The bacteria were cultured in cation-adjusted Mueller-Hinton broth (MH; Sigma-Aldrich, 90922) for drug susceptibility testing.
Experiments were performed in triplicates.
In the present invention, this step confirmed the activity of CC on the non-replicating culture induced by the depletion of oxygen. […] A comparison was made between the growth rates under aerobic, anaerobic and restored aerobic conditions in a same culture medium.
(In general: Resazurin is reduced to fluorescent resorufin, in cell work by metabolically active cells.)

Assay [3] relates to M. abscessus in biofilm culture. Briefly: Biofilm assay (Calgary Biofilm Device, MBEC Assay). The assay is classed as cell-based, Mycobacterium abscessus. Particulars: Mycobacteroides abscessus, FIG. 4. As to the method: The first biofilm assay system was the Calgary Biofilm Device used by Bardouniotis et al. to evaluate the bactericidal activity or minimum biofilm eradication concentration (MBEC) of a biocidal active substance against Mycobacterium phlei. In the present invention, MBEC Assay® (Innovotech, Edmonton, Canada) for MBEC measurement was used. Biofilm formation was performed as follows. […] Then, the 96-well microliter plate was covered with a 96-peg lid and incubated for 4 days. After washing, the bacteria remaining on the biofilms were removed from the wells by ultrasonication in the medium. Finally, after incubation, the adherent bacteria remaining on the biofilms with or without antibiotics were quantified with resazurin.

Assay [4] relates to M. abscessus (lux) in THP-1 cells. In words: microbe, parasite or virus in culture. The assay is classed as cell-based, Mycobacterium abscessus. Particulars: Mycobacteroides abscessus, THP-1, read-out: IC50 growth of intracellular M. abscessus (lux). The method, then:
(§1) THP-1 cells were treated with phorbol 12-myristate 13-acetate (PMA; Sigma-Aldrich, USA) at a final concentration of 50 nM for 40 hours. Infection with M. abscessus containing pTEC15 green fluorescence or luciferase was performed at 37° C. in the presence of 5% CO2 at a multiplicity of […] (MOI) of 2:1 for 3 hours. After extensive washing with PBS, the cells were incubated in a culture medium containing […] of gentamicin for 30 minutes and washed again with PBS. […] Macrophages were stained with SYTO 60 (Invitrogen, USA) dye at a final concentration of 5 μM at 37° C. in a 5% CO2 atmosphere for 30 minutes. On the day 4, luminescence was measured with a Synergy H1 microplate reader (Bio-Tek, USA). The fluorescence microscopic images of living cells were captured with a Lionheart™ FX automated microscope (BIO-Tek, USA). The Gen5™ 3.05 software object feature was available for identification of the cells in the imaging field.
The use of a double read assay results in dose-response curves for both inhibition for M. abscessus and cytotoxicity to THP-1 cells as determined in a same experiment. […] The cytotoxicity was determined using a SYTO 60 probe.

Assay [5] deals with M. abscessus-GFP in THP-1 cells. Briefly: microbe, parasite or virus in culture. The following applies: Mycobacteroides abscessus, THP-1, 72 h, read-out: IC50 growth of M. abscessus-GFP in THP-1 cells. As to the method:
as §1

For assay [6], the system named is M. avium (ATCC 25291). Particulars: 7H9 broth, FIG. 8.
In the next assay the test system is M. abscessus-LuxG13. Briefly: microbe, parasite or virus in culture. The following applies: Mycobacteroides abscessus, read-out: IC50 in M. abscessus-LuxG13.
Assay [7] has as its system M. avium (ATCC 25291). In words: microbe, parasite or virus in culture. The following applies: Mycobacterium avium, ATCC25291, read-out: IC50 against M. avium, 7H9 broth, FIG. 8.
Assay [8] concerns M. intracellulare (ATCC 13950). In words: microbe, parasite or virus in culture. Particulars: Mycobacterium intracellulare, ATCC13950, read-out: IC50 against M. intracellulare.

Broadly, the IC50 is the point on the concentration scale where inhibition reaches its midpoint. Turning to `CCN(CC)CCOc1ccc(C(=C(Cl)c2ccccc2)c2ccccc2)cc1` [CC, clomiphene citrate], the 50% inhibitory concentration (IC50) was determined as 17.1 µg/mL in assay [1]; 3.16 µg/mL in assay [2] (ATCC19997, anaerobic conditions); 0.00316 µg/mL in assay [2] (ATCC19997, anaerobic culture conditions); 15.9 µg/mL in assay [3]; 2.29 µg/mL in [4]; 13.2 µg/mL in assay [5]. The IC50 in the assay on M. abscessus-LuxG13 turned out to be 5.36 µg/mL; with M. avium (ATCC 25291) [7], 5.08 µg/mL; in [8] it was 14.1 µg/mL. Moreover, the “IC50 against M. avium” value in the assay with M. avium (ATCC 25291) [6] turned out to be 5.07 µg/mL.
